The other results are listed elsewhere or left out. The data scatter; read single values as rough.
Compound: ClCC(=O)N[C@H]1CCCc2ccccc12
Experiment: log2 mean competition ratio of IA-DTB cysteine labelling (DMSO/compound) (log2 ratio); higher = stronger cysteine engagement by compound
Details: 50 µM; treatment time: 4 h; cell line lysate: HEK293T
Procedure: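 IA-DTB competitive cysteine chemoproteomics in HEK293T RIPA lysate. Lysates were treated with compound 29 or 30 at 50 or 200 µM for 4 h, then IA-DTB (500 µM, 1 h), trypsin-digested, NeutrAvidin-enriched and analysed by diaPASEF. Competition ratio = intensity DMSO / intensity compound (n=4 treated, n=64 DMSO); binding: mean log2 CR ≥ 1 and p ≤ 0.05 plus QC filters. Target is the cysteine site.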

Sequences of proteins named here, by UniProt entry; tags and fusion partners are left off. A change or cut given only in a name is not applied to a line headed by its entry. Residues count along the entry.
UniProt Q9BXP5: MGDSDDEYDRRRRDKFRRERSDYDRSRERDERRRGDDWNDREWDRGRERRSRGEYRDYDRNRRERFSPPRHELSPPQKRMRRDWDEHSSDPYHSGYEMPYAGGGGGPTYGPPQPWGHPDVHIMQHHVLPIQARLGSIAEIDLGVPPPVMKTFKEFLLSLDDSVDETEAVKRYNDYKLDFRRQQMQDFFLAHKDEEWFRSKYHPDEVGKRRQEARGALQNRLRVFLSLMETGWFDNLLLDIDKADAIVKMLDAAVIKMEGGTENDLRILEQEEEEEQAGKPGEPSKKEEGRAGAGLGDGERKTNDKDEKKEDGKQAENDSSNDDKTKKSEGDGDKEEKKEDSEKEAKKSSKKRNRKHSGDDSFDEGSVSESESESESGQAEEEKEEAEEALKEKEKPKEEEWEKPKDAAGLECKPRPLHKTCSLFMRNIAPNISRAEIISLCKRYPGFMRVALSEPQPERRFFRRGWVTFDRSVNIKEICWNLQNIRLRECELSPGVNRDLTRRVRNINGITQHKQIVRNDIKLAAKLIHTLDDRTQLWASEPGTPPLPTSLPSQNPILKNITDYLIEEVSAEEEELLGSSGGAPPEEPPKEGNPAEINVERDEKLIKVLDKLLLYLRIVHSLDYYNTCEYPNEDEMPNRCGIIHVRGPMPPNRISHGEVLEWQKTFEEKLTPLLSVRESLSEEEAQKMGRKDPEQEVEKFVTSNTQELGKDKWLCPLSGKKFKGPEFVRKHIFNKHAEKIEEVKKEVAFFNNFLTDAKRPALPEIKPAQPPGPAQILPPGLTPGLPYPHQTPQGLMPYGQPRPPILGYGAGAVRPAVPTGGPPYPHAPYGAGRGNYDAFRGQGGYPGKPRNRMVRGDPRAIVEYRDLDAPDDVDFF
UniProt Q8N5C6: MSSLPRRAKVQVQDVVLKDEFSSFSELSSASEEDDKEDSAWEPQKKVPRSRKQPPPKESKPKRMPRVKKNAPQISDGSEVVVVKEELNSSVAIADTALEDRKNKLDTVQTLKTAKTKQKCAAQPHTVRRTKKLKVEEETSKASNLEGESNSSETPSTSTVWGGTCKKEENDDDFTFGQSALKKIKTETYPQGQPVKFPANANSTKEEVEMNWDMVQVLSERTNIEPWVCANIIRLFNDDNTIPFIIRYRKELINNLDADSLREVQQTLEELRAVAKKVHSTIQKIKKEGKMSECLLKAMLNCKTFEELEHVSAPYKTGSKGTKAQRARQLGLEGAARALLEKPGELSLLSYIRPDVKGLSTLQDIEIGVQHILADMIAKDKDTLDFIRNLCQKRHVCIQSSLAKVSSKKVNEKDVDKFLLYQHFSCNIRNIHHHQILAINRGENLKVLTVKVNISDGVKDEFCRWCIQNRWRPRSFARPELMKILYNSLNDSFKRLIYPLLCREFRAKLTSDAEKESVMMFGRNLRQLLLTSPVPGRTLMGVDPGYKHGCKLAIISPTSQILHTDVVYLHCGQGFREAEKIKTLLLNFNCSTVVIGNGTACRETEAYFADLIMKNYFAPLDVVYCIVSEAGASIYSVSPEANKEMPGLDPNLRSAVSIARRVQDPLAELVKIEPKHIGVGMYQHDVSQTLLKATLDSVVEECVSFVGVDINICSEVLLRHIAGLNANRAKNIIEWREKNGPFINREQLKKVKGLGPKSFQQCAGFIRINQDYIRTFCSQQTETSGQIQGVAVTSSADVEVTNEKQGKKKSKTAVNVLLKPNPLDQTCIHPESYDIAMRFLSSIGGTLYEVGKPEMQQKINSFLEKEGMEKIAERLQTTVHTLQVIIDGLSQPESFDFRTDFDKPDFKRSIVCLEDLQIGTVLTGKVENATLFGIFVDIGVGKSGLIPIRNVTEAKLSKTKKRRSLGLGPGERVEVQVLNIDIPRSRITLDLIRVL
UniProt O00186: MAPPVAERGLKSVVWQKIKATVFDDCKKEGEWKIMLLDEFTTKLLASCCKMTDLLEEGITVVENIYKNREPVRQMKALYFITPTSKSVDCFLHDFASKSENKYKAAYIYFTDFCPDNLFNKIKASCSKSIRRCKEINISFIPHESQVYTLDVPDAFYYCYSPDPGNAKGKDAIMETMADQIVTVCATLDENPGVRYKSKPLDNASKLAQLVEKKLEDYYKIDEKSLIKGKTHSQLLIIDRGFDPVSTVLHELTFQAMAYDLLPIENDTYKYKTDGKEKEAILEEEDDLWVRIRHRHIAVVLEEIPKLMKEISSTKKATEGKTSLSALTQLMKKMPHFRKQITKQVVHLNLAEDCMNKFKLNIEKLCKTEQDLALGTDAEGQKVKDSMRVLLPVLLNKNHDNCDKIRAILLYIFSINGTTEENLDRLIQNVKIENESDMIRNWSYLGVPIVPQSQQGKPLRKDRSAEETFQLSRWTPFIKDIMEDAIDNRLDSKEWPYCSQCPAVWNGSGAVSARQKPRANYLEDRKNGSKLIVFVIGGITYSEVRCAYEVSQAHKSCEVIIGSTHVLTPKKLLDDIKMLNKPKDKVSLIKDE
UniProt Q9P289: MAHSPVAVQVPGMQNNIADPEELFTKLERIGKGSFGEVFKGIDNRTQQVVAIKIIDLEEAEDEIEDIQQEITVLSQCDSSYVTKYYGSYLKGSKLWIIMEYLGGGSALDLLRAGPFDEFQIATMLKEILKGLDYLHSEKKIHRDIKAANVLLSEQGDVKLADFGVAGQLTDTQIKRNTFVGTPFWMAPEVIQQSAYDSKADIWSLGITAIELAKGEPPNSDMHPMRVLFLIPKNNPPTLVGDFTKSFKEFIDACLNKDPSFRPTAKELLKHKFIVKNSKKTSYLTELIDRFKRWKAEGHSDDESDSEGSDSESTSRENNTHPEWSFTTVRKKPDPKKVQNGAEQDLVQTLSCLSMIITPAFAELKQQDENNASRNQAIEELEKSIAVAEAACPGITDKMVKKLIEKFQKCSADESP
UniProt O15020, whole entry, looked up: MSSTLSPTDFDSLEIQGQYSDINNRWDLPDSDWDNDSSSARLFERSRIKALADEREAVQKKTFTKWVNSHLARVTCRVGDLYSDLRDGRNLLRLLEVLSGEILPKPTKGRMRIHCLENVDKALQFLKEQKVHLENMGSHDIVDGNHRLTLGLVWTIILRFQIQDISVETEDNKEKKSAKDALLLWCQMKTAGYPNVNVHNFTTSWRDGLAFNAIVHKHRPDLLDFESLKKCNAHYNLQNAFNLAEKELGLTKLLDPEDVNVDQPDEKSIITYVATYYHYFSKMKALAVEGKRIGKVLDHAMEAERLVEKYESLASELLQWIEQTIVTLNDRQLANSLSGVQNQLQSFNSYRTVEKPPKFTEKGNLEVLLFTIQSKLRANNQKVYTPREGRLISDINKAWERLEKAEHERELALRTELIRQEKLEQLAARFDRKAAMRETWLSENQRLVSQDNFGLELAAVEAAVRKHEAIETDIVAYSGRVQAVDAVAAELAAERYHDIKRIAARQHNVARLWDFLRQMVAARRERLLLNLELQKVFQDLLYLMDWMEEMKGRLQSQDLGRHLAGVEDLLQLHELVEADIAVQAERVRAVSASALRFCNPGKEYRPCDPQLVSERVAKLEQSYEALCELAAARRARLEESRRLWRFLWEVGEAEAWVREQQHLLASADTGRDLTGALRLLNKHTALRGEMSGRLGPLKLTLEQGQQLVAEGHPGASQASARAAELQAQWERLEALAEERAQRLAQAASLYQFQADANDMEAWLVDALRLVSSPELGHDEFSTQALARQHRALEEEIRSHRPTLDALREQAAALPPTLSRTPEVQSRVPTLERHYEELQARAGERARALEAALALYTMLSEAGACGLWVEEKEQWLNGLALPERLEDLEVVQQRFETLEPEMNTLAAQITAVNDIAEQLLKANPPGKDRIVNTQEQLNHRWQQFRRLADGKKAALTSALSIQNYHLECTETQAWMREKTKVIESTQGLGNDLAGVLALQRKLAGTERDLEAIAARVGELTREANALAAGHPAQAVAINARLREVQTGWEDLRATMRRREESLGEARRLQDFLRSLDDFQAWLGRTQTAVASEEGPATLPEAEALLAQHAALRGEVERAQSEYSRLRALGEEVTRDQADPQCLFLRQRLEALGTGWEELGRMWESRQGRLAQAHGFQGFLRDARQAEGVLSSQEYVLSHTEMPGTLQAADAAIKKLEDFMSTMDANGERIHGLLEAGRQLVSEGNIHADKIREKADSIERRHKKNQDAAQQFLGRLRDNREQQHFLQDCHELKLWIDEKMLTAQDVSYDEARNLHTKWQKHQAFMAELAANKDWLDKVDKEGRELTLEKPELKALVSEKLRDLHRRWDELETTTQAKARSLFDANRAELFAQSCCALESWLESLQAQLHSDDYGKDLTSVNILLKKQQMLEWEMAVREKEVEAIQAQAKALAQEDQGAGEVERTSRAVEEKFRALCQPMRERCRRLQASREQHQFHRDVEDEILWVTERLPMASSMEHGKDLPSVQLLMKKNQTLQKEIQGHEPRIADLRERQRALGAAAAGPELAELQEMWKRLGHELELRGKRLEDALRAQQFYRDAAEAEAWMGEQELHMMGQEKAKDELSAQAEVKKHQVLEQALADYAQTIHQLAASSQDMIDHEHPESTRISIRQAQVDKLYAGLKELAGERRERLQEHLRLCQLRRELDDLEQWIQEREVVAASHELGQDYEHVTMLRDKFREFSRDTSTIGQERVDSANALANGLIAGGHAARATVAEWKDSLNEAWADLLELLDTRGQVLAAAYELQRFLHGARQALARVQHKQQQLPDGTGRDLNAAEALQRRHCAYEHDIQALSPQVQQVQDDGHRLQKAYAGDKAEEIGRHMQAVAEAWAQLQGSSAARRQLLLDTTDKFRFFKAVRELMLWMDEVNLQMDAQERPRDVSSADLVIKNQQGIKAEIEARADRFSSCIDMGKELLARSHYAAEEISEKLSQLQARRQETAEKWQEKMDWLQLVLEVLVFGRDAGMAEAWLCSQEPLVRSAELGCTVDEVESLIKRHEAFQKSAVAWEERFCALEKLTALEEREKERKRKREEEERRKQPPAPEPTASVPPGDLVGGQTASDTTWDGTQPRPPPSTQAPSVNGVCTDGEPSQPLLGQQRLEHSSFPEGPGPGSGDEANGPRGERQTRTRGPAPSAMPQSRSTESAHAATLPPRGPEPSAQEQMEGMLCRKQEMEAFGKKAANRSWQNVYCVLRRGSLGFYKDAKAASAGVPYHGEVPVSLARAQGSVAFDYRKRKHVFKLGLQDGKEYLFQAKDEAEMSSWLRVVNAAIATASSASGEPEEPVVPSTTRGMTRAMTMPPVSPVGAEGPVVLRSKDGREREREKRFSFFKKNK
UniProt Q6ZWJ1: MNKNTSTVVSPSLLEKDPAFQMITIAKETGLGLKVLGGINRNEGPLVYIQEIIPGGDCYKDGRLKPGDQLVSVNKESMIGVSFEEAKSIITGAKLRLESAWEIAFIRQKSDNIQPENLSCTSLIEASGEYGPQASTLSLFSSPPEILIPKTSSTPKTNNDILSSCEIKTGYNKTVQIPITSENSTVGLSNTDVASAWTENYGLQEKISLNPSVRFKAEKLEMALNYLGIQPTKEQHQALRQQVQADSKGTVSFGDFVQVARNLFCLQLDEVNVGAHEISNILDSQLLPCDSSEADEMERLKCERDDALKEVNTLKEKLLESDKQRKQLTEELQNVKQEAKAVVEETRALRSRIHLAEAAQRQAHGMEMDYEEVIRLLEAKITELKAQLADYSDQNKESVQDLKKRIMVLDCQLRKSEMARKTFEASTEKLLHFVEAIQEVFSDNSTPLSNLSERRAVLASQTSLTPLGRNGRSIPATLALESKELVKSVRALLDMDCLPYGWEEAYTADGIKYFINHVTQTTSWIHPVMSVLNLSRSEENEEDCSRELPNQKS
UniProt Q15005, 11-32: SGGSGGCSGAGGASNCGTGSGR
UniProt P56962: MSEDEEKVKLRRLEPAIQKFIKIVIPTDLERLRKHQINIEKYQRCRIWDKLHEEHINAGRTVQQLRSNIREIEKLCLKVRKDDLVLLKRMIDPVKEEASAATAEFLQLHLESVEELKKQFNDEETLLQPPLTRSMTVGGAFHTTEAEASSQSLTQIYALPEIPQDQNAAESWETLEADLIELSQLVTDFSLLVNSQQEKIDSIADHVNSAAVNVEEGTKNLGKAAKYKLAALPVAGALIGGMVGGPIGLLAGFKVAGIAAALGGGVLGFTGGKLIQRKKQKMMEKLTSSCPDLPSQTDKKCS
UniProt Q8N2I9: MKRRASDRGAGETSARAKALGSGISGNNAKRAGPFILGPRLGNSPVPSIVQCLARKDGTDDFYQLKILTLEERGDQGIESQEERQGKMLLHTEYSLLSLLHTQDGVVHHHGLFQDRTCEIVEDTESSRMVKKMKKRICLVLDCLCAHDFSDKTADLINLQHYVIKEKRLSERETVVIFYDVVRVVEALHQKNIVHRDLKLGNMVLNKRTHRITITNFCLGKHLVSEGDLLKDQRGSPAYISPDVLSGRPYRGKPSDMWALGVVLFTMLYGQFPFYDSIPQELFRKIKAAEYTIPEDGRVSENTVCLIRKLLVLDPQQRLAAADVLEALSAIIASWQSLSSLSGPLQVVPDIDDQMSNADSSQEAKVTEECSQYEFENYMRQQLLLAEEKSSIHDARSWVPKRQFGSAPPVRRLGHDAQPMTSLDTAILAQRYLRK

Target	log2 mean competition ratio
SRRT C715 (UniProt Q9BXP5)	0.297
SYNE2 C4911 (UniProt Q8WXH0)	-0.0372
SRBD1 C120 (UniProt Q8N5C6)	0.477
SPTY2D1 C535 (UniProt Q68D10)	-0.266
SYNE2 C5212 (UniProt Q8WXH0)	-0.213
SPATS2L C351 (UniProt Q9NUQ6)	-0.331
STXBP3 C26 (UniProt O00186)	-0.1
STK26 C392 (UniProt Q9P289)	-0.0185
SRA1 C122 (UniProt Q9HD15)	0.271
STK11IP C918 (UniProt Q8N1F8)	-0.257
SPC25 C27 (UniProt Q9HBM1)	0.144
SYNE2 C90 (UniProt Q8WXH0)	-0.142
STX16 C150 (UniProt O14662)	-0.144
SYNE2 C1032 (UniProt Q8WXH0)	0.0627
STIP1 C461	0.0699
STEAP3 C140 (UniProt Q658P3)	0.0423
SUGT1 C154 (UniProt Q9Y2Z0)	-0.573
SPECC1L C79 (UniProt Q69YQ0)	0.223
SRBD1 C502 (UniProt Q8N5C6)	0.266

Target	log2 mean competition ratio
SYNE2 C2520 (UniProt Q8WXH0)	0.918
SUZ12 C201 (UniProt Q15022)	0.291
STAT6 C272 (UniProt P42226)	0.0667
SPTBN2 C1474 (UniProt O15020)	0.413
STRN C665 (UniProt O43815)	0.221
STXBP4 C544 (UniProt Q6ZWJ1)	-0.142
SRRT C490 (UniProt Q9BXP5)	0.156
SRP72 C50 (UniProt O76094)	-0.576
SRP9 C39 (UniProt P49458)	-0.0572
SSH2 C810 (UniProt Q76I76)	-0.22
STXBP3 C546 (UniProt O00186)	0.245
SPCS2_(C17,C17,C26,C26) (UniProt Q15005)	-0.253
SYK C259 (UniProt P43405)	0.237
SRPRA C363 (UniProt P08240)	-0.611
STX17 C290 (UniProt P56962)	-0.349
STAT1 C155 (UniProt P42224)	0.0101
STK40 C305 (UniProt Q8N2I9)	-0.381
SRP68 C562 (UniProt Q9UHB9)	-0.0918
SURF1 C125 (UniProt Q15526)	-0.0969

Same assay, conditions: 200 µM; treatment time: 4 h; cell line lysate: HEK293T

Target	log2 mean competition ratio
SRRT C715 (UniProt Q9BXP5)	0.952
SYNE2 C4911 (UniProt Q8WXH0)	-0.104
SRBD1 C120 (UniProt Q8N5C6)	-0.163
SPTY2D1 C535 (UniProt Q68D10)	-0.0962
SYNE2 C5212 (UniProt Q8WXH0)	-0.117
SPATS2L C351 (UniProt Q9NUQ6)	-0.366
STXBP3 C26 (UniProt O00186)	-0.0392
STK26 C392 (UniProt Q9P289)	-0.113
SRA1 C122 (UniProt Q9HD15)	0.0875
STK11IP C918 (UniProt Q8N1F8)	-0.0671
SPC25 C27 (UniProt Q9HBM1)	-0.000309
SYNE2 C90 (UniProt Q8WXH0)	0.175
STX16 C150 (UniProt O14662)	0.185
SYNE2 C1032 (UniProt Q8WXH0)	-0.0875
STIP1 C461	0.113
STEAP3 C140 (UniProt Q658P3)	0.171
SUGT1 C154 (UniProt Q9Y2Z0)	-0.379
SPECC1L C79 (UniProt Q69YQ0)	-0.198
SRBD1 C502 (UniProt Q8N5C6)	0.379

Target	log2 mean competition ratio
SYNE2 C2520 (UniProt Q8WXH0)	0.00592
SUZ12 C201 (UniProt Q15022)	0.146
STAT6 C272 (UniProt P42226)	-0.154
SPTBN2 C1474 (UniProt O15020)	0.0615
STRN C665 (UniProt O43815)	-0.372
STXBP4 C544 (UniProt Q6ZWJ1)	0.481
SRRT C490 (UniProt Q9BXP5)	0.112
SRP72 C50 (UniProt O76094)	0.0112
SRP9 C39 (UniProt P49458)	-0.178
SSH2 C810 (UniProt Q76I76)	-0.302
STXBP3 C546 (UniProt O00186)	-0.189
SPCS2_(C17,C17,C26,C26) (UniProt Q15005)	0.395
SYK C259 (UniProt P43405)	0.0641
SRPRA C363 (UniProt P08240)	-0.211
STX17 C290 (UniProt P56962)	0.0295
STAT1 C155 (UniProt P42224)	0.0735
STK40 C305 (UniProt Q8N2I9)	0.0353
SRP68 C562 (UniProt Q9UHB9)	0.109
SURF1 C125 (UniProt Q15526)	-0.32

From the supplement of paper PMC11732987, “Enantioselective OTUD7B fragment discovery through chemoproteomics screening and high-throughput optimisation” (Communications Chemistry, 2025)
